Reference: patent US20230277612A1, “SAPONIN DERIVATIVES FOR USE IN MEDICINE” (priority 2020, published 2023)
Some entries share one result that the patent states for a list of compounds. For at least one compound, name, drawing or mass did not settle the structure.

Legend:
Type in all cases: cell-based
HeLa cells = settings: saponin alone, read-out: IC50 toxicity
Method: (§1) (FIGS. 66a and 66B). Next toxicity was determined, for this the modified saponins were titrated on HeLa and A431 cells. […] Next toxicity was determined, for this the modified saponins were titrated on HeLa and A431 cells.

A431 cells = settings: saponin alone, read-out: IC50 toxicity
Method: as §1

human red blood cells = settings: text, listed as QS21-Ald-EMCH-(Glu-AMPD), read-out: IC50 hemolytic activity
Method: Red blood cells (RBCs) were isolated from a buffy coat using a Ficoll gradient. The obtained RBC pellet (˜4-5 ml) was washed 2× with 50 ml DPBS (without Ca^2+/Mg^2+, PAN-Biotech GmbH). Cells were pelleted by centrifugation for 10 min, 800×g at RT. RBC were counted and resuspended at 500.000.000 c/ml in DPBS (without Ca^2+/Mg^2+), based on total cell count.
(§2) Saponin dilutions were prepared in DPBS (with Ca^2+/Mg^2+, PAN-Biotech GmbH), at 1.11× final strength. For positive lysis control a 0.02% Triton-X100 solution was prepared in DPBS^+/+. Of all compound solutions 135 μl was dispensed/well in a 96 well V-bottom plate. To this 15 μl RBC suspension was added and mixed shortly (10 sec-600 rpm). The plate was incubated 30 min at RT, with gentle agitation. Afterwards the plate was spun for 10 min at 800×g to pellet the RBC and 100-120 μl supernatant was transferred to a standard 96 wp (96 well-plate).
as §2, with “DPBS+/+.” for “DPBS^+/+.”, “Afterwards the plate was spun for 10 min at 800×g to pellet the RBC and 100-120 μl supernatant was transferred to a standard 96 wp (96 well-plate).” left out

Compound | IC50 (HeLa cells) | IC50 (A431 cells) | IC50 (human red blood cells)
CC(=O)OC1C(C)OC(OC2C(C)OC(OC(=O)[C@]34CCC(C)(C)CC3C3=CCC5[C@@]6(C)CC[C@H](OC7OC(C(=O)O)C(O)C(OC8OCC(O)C(O)C8O)C7OC7OC(CO)C(O)C(O)C7O)[C@@](C)(CO)C6CC[C@@]5(C)[C@]3(C)C[C@H]4O)C(OC3OC(C)C(OC4OCC(O)C(OC5OC(CO)C(O)C(O)C5O)C4O)C(O)C3O)C2O)C(O)C1OC1OCC(O)C(O)C1O (some centres unmarked) [SO1861-Ald-OH] | > 100 µM |  | 
CC[C@H](C)[C@H](C[C@H](O)CC(=O)OC1C(C)OC(OC(=O)[C@]23CCC(C)(C)CC2C2=CCC4[C@@]5(C)CC[C@H](OC6OC(C(=O)NC(C)(CO)CO)C(O)C(OC7OCC(O)C(O)C7O)C6OC6OC(CO)C(O)C(O)C6O)[C@@](C)(/C=N/NC(=O)CCCCCN6C(=O)C=CC6=O)C5CC[C@@]4(C)[C@]2(C)C[C@H]3O)C(OC2OC(C)C(OC3OCC(O)C(OC4OCC(O)(CO)C4O)C3O)C(O)C2O)C1O)OC(=O)C[C@@H](O)C[C@H](OC1OC(CO)C(O)C1O)[C@@H](C)CC (some centres unmarked) [QS21-(Ald-EMCH)-(Glu-AMPD)] | > 30 µM | > 30 µM | > 1000 µM
Aescin [reference compound] | > 30 µM |  | 
